Reference: patent publication US8895497B2, “Cathepsin S inhibitors” (DCB-USA, LLC, priority 2009, dated 2014)
Some of these results come from one statement about several compounds together.

Protein sequences, listed by entry. Tags and fused reporters are not part of them. Residues count along the entry.
UniProt P25774, 115-331: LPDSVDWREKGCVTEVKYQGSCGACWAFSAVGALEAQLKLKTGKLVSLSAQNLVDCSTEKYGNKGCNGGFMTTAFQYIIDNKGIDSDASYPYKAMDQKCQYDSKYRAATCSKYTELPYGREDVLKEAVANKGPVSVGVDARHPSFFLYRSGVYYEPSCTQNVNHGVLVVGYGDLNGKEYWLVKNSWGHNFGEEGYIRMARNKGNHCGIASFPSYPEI

Assays:
HUVECs = HUVECs migration assay (in vitro wound healing); type: cell-based; details: 1% FBS and 20 ng/ml VEGF, 24-hour incubation
recombinant cathepsin S = molecular target: T1, recombinant cathepsin S (Homo sapiens, UniProt P25774); assay: Cathepsin S assay (Z-VVR-AMC fluorogenic substrate); type: biochemical; details: for IC50: 37° C.
T1 construct: made in house; host or cells: E. coli (pET23a)

[1] = test system: highly-metastatic human lung adenocarcinoma CL1-5 cells; assay: Cancer cells migration assay (MultiScreen-MIC plates); type: cell-based; details: 24 h at 37° C., 8 μm-pore membrane

SMILES | inhibited HUVECs migration (HUVECs) [%] | inhibitory activity (cathepsin S) (recombinant cathepsin S) | IC50 (recombinant cathepsin S) [nM] | inhibited CL-15 cell migration [1] [%]
CCOC(=O)CNC(=O)C(=O)C(COCc1ccccc1)NC(=O)[C@H](CC1CCCCC1)NC(=O)C1CCCCC1 (stereo partly drawn) [Compound 48] | ≥ 25 | exhibited inhibitory activity | < 50 | –
CCOC(=O)CNC(=O)C(=O)C(COCc1ccccc1)NC(=O)C(CC1CCCCC1)NC(=O)c1ccc([N+](=O)[O-])s1 (stereo in doubt) [Compound 43, Ethyl 2-(4-(benzyloxy)-3-[((2R)-3-cyclohexyl-2-[(5-nitro-2-thienyl)carbonyl]aminopropanoyl)amino]-2-oxobutanoylamino)acetate] | ≥ 25 | exhibited inhibitory activity | < 50 | ≥ 25
CCCCNC(=O)C(=O)C(COCc1ccccc1)NC(=O)C(CC1CCCCC1)NC(=O)N1CCOCC1 (stereo in doubt) [Compound 67, N4-[(1R)-2-[1-[(benzyloxy)methyl]-3-(butylamino)-2,3-dioxopropyl]amino-1-(cyclohexylmethyl)-2-oxoethyl]-4-morpholinecarboxamide] | – | exhibited inhibitory activity | < 50 | ≥ 25
O=C(Nc1ccc(F)cc1)C(=O)C(COCc1ccccc1)NC(=O)C(CC1CCCCC1)NC(=O)N1CCOCC1 (stereo in doubt) [Compound 72, N4-[(1R)-2-[1-[(benzyloxy)methyl]-3-(4-fluoroanilino)-2,3-dioxopropyl]amino-1-(cyclohexylmethyl)-2-oxoethyl]-4-morpholinecarboxamide] | – | exhibited inhibitory activity | < 50 | ≥ 25
CCOC(=O)CNC(=O)C(=O)C(COCc1ccccc1)NC(=O)C(CC1CCCCC1)NC(=O)c1cc2ccccc2n1C (stereo in doubt) [Compound 28, Ethyl 2-(4-(benzyloxy)-3-[((2R)-3-cyclohexyl-2-[(1-methyl-1H-2-indolyl)carbonyl]aminopropanoyl)amino]-2-oxobutanoylamino)acetate] | ≥ 25 | exhibited inhibitory activity | < 50 | –
CCOC(=O)CNC(=O)C(=O)C(COCc1ccccc1)NC(=O)C(CC1CCCCC1)NC(=O)/C=C/c1cc(OC)ccc1OC (stereo in doubt) [Compound 9, Ethyl 2-(4-(benzyloxy)-3-[((2R)-3-cyclohexyl-2-[(E)-3-(2,5-dimethoxyphenyl)-2-propenoyl]aminopropanoyl)amino]-2-oxobutanoylamino)acetate] | ≥ 25 | exhibited inhibitory activity | < 50 | –
O=C(NCCc1ccccc1)C(=O)C(COCc1ccccc1)NC(=O)C(CC1CCCCC1)NC(=O)N1CCOCC1 (stereo in doubt) [Compound 70, N4-[(1R)-2-[1-[(benzyloxy)methyl]-2,3-dioxo-3-(phenethylamino)propyl]amino-1-(cyclohexylmethyl)-2-oxoethyl]-4-morpholinecarboxamide] | – | exhibited inhibitory activity | < 50 | ≥ 25
CC(C)(C)CC(C)(C)NC(=O)C(=O)C(COCc1ccccc1)NC(=O)[C@H](CC1CCCCC1)NC(=O)N1CCOCC1 (stereo partly drawn) [Compound 66] | – | exhibited inhibitory activity | < 50 | ≥ 25
O=C(Nc1ccc(Cl)cc1)C(=O)C(COCc1ccccc1)NC(=O)C(CC1CCCCC1)NC(=O)N1CCOCC1 (stereo in doubt) [Compound 71, N4-[(1R)-2-[1-[(benzyloxy)methyl]-3-(4-chloroanilino)-2,3-dioxopropyl]amino-1-(cyclohexylmethyl)-2-oxoethyl]-4-morpholinecarboxamide] | – | exhibited inhibitory activity | < 50 | ≥ 25
CCOC(=O)CNC(=O)C(=O)C(COCc1ccccc1)NC(=O)C(CC1CCCCC1)NC(=O)c1cc(SC)ccc1Cl (stereo in doubt) [Compound 10, Ethyl 2-(4-(benzyloxy)-3-[((2R)-2-[2-chloro-5-(methylsulfanyl)benzoyl]amino-3-cyclohexylpropanoyl)amino]-2-oxobutanoylamino)acetate] | – | exhibited inhibitory activity | < 50 | ≥ 25
CCOC(=O)CNC(=O)C(=O)C(COCc1ccccc1)NC(=O)C(CC1CCCCC1)NC(=O)c1ccc(Cl)c(NC(=O)OC(C)(C)C)c1 (stereo in doubt) [Compound 49, Ethyl 2-[(4-(benzyloxy)-3-[(2R)-2-(3-[(tert-butoxycarbonyl)amino]-4-chlorobenzoylamino)-3-cyclohexylpropanoyl]amino-2-oxobutanoyl)amino]acetate] | – | exhibited inhibitory activity | < 50 | ≥ 25
CCOC(=O)CNC(=O)C(=O)C(COCc1ccccc1)NC(=O)[C@H](CC1CCCCC1)NC(=O)/C=C/c1ccc([N+](=O)[O-])cc1 (stereo partly drawn) [Compound 27] | ≥ 25 | exhibited inhibitory activity | < 50 | –
CCOC(=O)CNC(=O)C(=O)C(COCc1ccccc1)NC(=O)C(CC1CCCCC1)NC(=O)C1=CC(=O)CC(C)(C)O1 (stereo in doubt) [Compound 13, Ethyl 2-(4-(benzyloxy)-3-[(2R)-(3-cyclohexyl-2-[(2,2-dimethyl-4-oxo-3,4-dihydro-2H-6-pyranyl)carbonyl]aminopropanoyl)amino]-2-oxobutanoylamino)acetate] | – | exhibited inhibitory activity | < 50 | –
O=C(NC1CCCCC1)C(=O)C(COCc1ccccc1)NC(=O)C(CC1CCCCC1)NC(=O)N1CCOCC1 (stereo in doubt) [Compound 73, N4-[(1R)-2-[1-[(benzyloxy)methyl]-3-(cyclohexylamino)-2,3-dioxopropyl]amino-1-(cyclohexylmethyl)-2-oxoethyl]-4-morpholinecarboxamide] | – | exhibited inhibitory activity | < 50 | –
CC(C)(C)NC(=O)C(=O)C(COCc1ccccc1)NC(=O)C(CC1CCCCC1)NC(=O)N1CCOCC1 (stereo in doubt) [Compound 64, N4-[(1R)-2-[1-[(benzyloxy)methyl]-3-(tert-butylamino)-2,3-dioxopropyl]amino-1-(cyclohexylmethyl)-2-oxoethyl]-4-morpholinecarboxamide] | – | exhibited inhibitory activity | < 50 | ≥ 25
CCOC(=O)CNC(=O)C(=O)C(COCc1ccccc1)NC(=O)[C@H](CC1CCCCC1)NC(=O)c1ccccc1 (stereo partly drawn) [Compound 47] | – | exhibited inhibitory activity | < 50 | –
O=C(CC[C@@H](COCc1ccccc1)NC(=O)[C@H](Cc1ccccc1)NC(=O)N1CCOCC1)NCc1ccccc1 [Compound 81] | – | exhibited inhibitory activity | – | –
CCOC(=O)CNC(=O)C(=O)C(COCc1ccccc1)NC(=O)[C@H](CC1CCCCC1)NC(=O)c1ccc2c(c1)C(=O)c1ccccc1-2 (stereo partly drawn) [Compound 38] | – | exhibited inhibitory activity | < 50 | –
CCOC(=O)CNC(=O)C(=O)C(COCc1ccccc1)NC(=O)[C@H](CC1CCCCC1)NC(=O)CCC(=O)c1ccc2ccc3c4c2c1CC=C4C=CC3 (stereo partly drawn) [Compound 61] | – | exhibited inhibitory activity | – | –
CCCCCc1ccc(C(=O)N[C@H](CC2CCCCC2)C(=O)NC(COCc2ccccc2)C(=O)C(=O)NCC(=O)OCC)c(=O)o1 (stereo partly drawn) [Compound 55, Ethyl 2-(4-(benzyloxy)-3-[((2R)-3-cyclohexyl-2-[(2-oxo-6-pentyl-2H-3-pyranyl)carbonyl]aminopropanoyl)amino]-2-oxobutanoylamino)acetate] | – | exhibited inhibitory activity | < 50 | –
CCOC(=O)CNC(=O)C(=O)C(COCc1ccccc1)NC(=O)[C@H](CC1CCCCC1)NC(=O)/C=C/c1ccc2c(c1)OCO2 (stereo partly drawn) [Compound 19] | – | exhibited inhibitory activity | < 50 | –
CC#CC(=O)NC(CC1CCCCC1)C(=O)NC(COCc1ccccc1)C(=O)C(=O)NCC(=O)OCC (stereo in doubt) [Compound 14, Ethyl 2-[(4-(benzyloxy)-3-[(2R)-2-(2-butynoylamino)-3-cyclohexylpropanoyl]amino-2-oxobutanoyl)amino]acetate] | – | exhibited inhibitory activity | < 50 | ≥ 25
CCOC(=O)CNC(=O)C(=O)C(COCc1ccccc1)NC(=O)[C@H](CC1CCCCC1)NC(=O)c1ccc2ccccc2c1 (stereo partly drawn) [Compound 15] | – | exhibited inhibitory activity | < 50 | –
O=C(CC[C@H](CCc1ccccc1)NC(=O)[C@H](CC1CCCCC1)NC(=O)N1CCOCC1)NCc1ccccc1 [Compound 86] | – | exhibited inhibitory activity | – | –
CCOC(=O)CNC(=O)C(=O)C(COCc1ccccc1)NC(=O)[C@H](CC1CCCCC1)NC(=O)N1CCOCC1 (stereo partly drawn) [Compound 62] | – | exhibited inhibitory activity | < 50 | ≥ 25
Cc1cccc(C)c1NC(=O)C(=O)C(COCc1ccccc1)NC(=O)C(CC1CCCCC1)NC(=O)N1CCOCC1 (stereo in doubt) [Compound 78, N4-[(1R)-2-[1-[(benzyloxy)methyl]-3-(2,6-dimethylanilino)-2,3-dioxopropyl]amino-1-(cyclohexylmethyl)-2-oxoethyl]-4-morpholinecarboxamide] | – | exhibited inhibitory activity | < 50 | –
COc1ccc(NC(=S)N[C@@H](CC(C)C)C(=O)NCC#N)cc1 [Compound 96] | – | exhibited inhibitory activity | – | –
